PubChem BioAssay AID540256 (National Center for Advancing Translational Sciences (NCATS), 2011)
Hit rate of the full screen: of about 300,000 compounds, about 3,700 (1.2%) were called active. The inconclusive results got no clear call from the source; some entries with a clear call stand among them for comparison. Calls come from the whole dose curve; tested in HEK293 cells. A potency beside an inconclusive call is a rough fit, not a confirmed value.

experiment: qHTS for Inhibitors of binding or entry into cells for Lassa Virus; details: Lassa virus pseudotype entry inhibition, cell reporter; series mostly up to 37.9 µM; note: nearly all actives have a fitted effect of over 50% in size
Potency is the fitted concentration of half-maximal effect.

SMILES	Potency
COc1cccc(CNCc2ccccn2)c1OC	inactive
Cc1nnc(N/N=C/c2ccccc2O)n1N	inconclusive: 15.8 µM [inhibitor, partial curve, poor fit]
Cc1ccccc1NS(=O)(=O)c1ccc(C(=O)NCC2CCCO2)cc1 (configuration not stated)	inconclusive: 7.94 µM [inhibitor, partial curve, poor fit]
COc1cc(C2C(C#N)=C(N)Oc3c2ccc2ccccc32)ccc1OCC(=O)Nc1ccc(C)cc1 (configuration not stated)	inconclusive: 20.6 µM [inhibitor, partial curve, poor fit]
CCOc1cccc(C(=O)Nc2ccc3oc(-c4ccncc4)nc3c2)c1	inactive
CCC(=O)Nc1c(C(=O)Nc2ccc3c(c2)OCCO3)oc2ccccc12	inconclusive: 2.51 µM [activator, partial curve, poor fit]
Nc1ccc(C(=O)Nc2ccccc2C(=O)O)cc1	inactive
CCc1ccc2c(c1)NC(c1ccc(F)cc1)=NC(c1ccncc1)=N2	inactive
O=C(NC(=S)NCC1CCCO1)c1cccs1 (configuration not stated)	inconclusive: 7.31 µM [activator, partial curve, poor fit]
O=C(Nc1ccccc1C(F)(F)F)c1cc2nc(-c3ccccc3)cc(-c3ccccc3)n2n1	inactive
C[C@]12CC[C@H](O)CC1=CCC1C2CC[C@@]2(C)C1CC[C@@H]2NC(=O)[C@@H](N)Cc1cnc[nH]1 (some centres not stated)	inconclusive: 10 µM [inhibitor, partial curve, poor fit]
c1ccc(-c2nc(NCc3cccnc3)c3oc4ccccc4c3n2)cc1	inconclusive: 11.6 µM [inhibitor, partial curve, poor fit]
O=C1c2cccc3c(O)ccc(c23)C(=O)N1c1ccc(Cl)cc1	inconclusive: 12.6 µM [inhibitor, single point]
O=C(COc1ccccc1Cl)Nc1cc(NC(=O)COc2ccccc2Cl)cc(C(=O)O)c1	active: 8.91 µM
O=C(Nc1ccccc1)N(CCN1CCOCC1)Cc1ccccc1F	inconclusive: 22.4 µM [activator, single point]
Cc1ccnc(NC(=O)Nc2cccc(F)c2)c1	active: 6.51 µM
COc1ccc(-c2oc3ccccc3c(=O)c2OC(=O)c2ccc(C)cc2)cc1	inactive
CCOc1ccc(CN2CCNC(=O)C2CC(=O)NCCc2ccccn2)cc1 (configuration not stated)	inactive
COc1ccc2c(c1)c(CC(=O)Nc1cc(C)cc(C)c1)c(C)n2C(=O)c1ccc(Cl)cc1	inactive
O=Nc1onc(-c2ccc([N+](=O)[O-])cc2)c1NO	inconclusive: 0.501 µM [inhibitor, full curve, poor fit]
CCOc1cc(S(=O)(=O)NCCc2c(C)[nH]c3ccc(C)cc23)ccc1F	inconclusive: 0.562 µM [inhibitor, full curve, poor fit]

2 compounds picked at random from the list so far:
SMILES	Potency
Cc1ccccc1NS(=O)(=O)c1ccc(C(=O)NCC2CCCO2)cc1 (configuration not stated)	inconclusive: 7.94 µM [inhibitor, partial curve, poor fit]
Cc1ccnc(NC(=O)Nc2cccc(F)c2)c1	active: 6.51 µM

(next part)

SMILES	Potency
COc1ccc(C)cc1NC(=O)c1sc2nc(-c3ccc(F)cc3)cn2c1C	inconclusive: 3.55 µM [inhibitor, partial curve, poor fit]
CCN(CC)C(=O)c1sc2c(c1C)c(=O)n(Cc1ccccc1)c(=O)n2Cc1cc(C)ccc1C	inconclusive: 1.12 µM [inhibitor, full curve, poor fit]
O=C(Nc1ccc(C(=O)N2CCOCC2)cc1)c1cccs1	inactive
O=C(CCN1C(=O)C2CCCCC2C1=O)Nc1nc2ccc(F)cc2s1 (configuration not stated)	active: 11.2 µM
S=c1[nH]nc(-c2ccccc2)n1/N=C/c1c[nH]c2ccccc12	inconclusive: 28.2 µM [inhibitor, single point]
COc1ccc(S(=O)(=O)NCCSCc2ccco2)cc1Cl	inconclusive: 1 µM [inhibitor, partial curve, poor fit]
CCN(CC)CCNC(=O)/C(=C/c1cn(C)c2ccccc12)NC(=O)c1ccc(OC)c(OC)c1	inconclusive: 28.2 µM [activator, partial curve, poor fit]
Cc1cc(C)cc(OCC(=O)Nc2ccc(F)cc2)c1	inactive
Cc1ccc2c(c1)nnn2C1CCN(S(=O)(=O)c2ccc3ccccc3c2)CC1	inconclusive: 14.6 µM [inhibitor, partial curve, poor fit]
CC(C)CNC(=O)C(=O)Nc1ccc2c(c1)N(S(=O)(=O)c1cccs1)CCC2	inconclusive: 10 µM [inhibitor, partial curve, poor fit]
COc1ccccc1/C=N/n1nnnc1N	inactive
CC(c1ccco1)N(C(=O)c1ccc(Cl)s1)c1ccccn1 (configuration not stated)	inconclusive: 1.3 µM [activator, full curve, poor fit]
CCOc1ccccc1NC(=O)Cn1c(=O)n(-c2ccc(C)c(C)c2)c(=O)c2oc3ccccc3c21	inconclusive: 39.8 µM [activator, partial curve, poor fit]
CC(=O)NC(CC(=O)Nc1nc(-c2ccccc2)c(C(C)=O)s1)c1ccccc1 (configuration not stated)	inconclusive: 16.4 µM [inhibitor, partial curve, poor fit]
COc1cc2c(cc1Nc1nc(Nc3cccc(F)c3C(N)=O)c3cc[nH]c3n1)N(C(=O)CN1CCN(C(C)C)CC1)CC2	inconclusive: 22.3 µM [inhibitor, partial curve, poor fit]
Cc1ccc(C(c2nnnn2CC2CCCO2)N2CCN(c3cccc(C)c3C)CC2)cc1 (configuration not stated)	inconclusive: 11.2 µM [inhibitor, partial curve, poor fit]
Cc1ccc(O)c(C(=O)c2cnc3c(c2)c(C)nn3C)c1	inconclusive: 7.08 µM [inhibitor, full curve, poor fit]
Cc1ccc(N2C(=O)CCC2=O)c(C)c1	inconclusive: 35.5 µM [inhibitor, single point]
CN(C)c1cc(N/N=C/c2ccc(Cl)cc2)nc(N(C)C)n1	active: 11.6 µM
O=C(OCCN1C(=O)c2cccc3c(N4CCOCC4)ccc(c23)C1=O)c1ccccc1Cl	inconclusive: 15.8 µM [inhibitor, single point]
CCOC(=O)c1cc(C)n(CC2CCC(C(=O)Nc3ccc(OC)c(OC)c3)CC2)c1C (configuration not stated)	inactive
